{"source": "PubChem BioAssay AID1259425 (University of Nebraska Medical Center, 2018)", "assay": "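Seek colon cancer weak points whose silencing resembles KSR1 loss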 (primary screen)", "system": "HCT116 human colon cancer cells", "reagents": "siRNA pool against human genes, 50 nM siRNA", "detection": "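mRNA of six signature genes measured together by branched-DNA assay after 50 nM siRNA pool, blank removed, divided by geometric mean of two housekeeping genes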", "reading the numbers": "BNIP3L mRNA: higher = more BNIP3L transcript after knockdown", "note": "Here is a random part of about 14,000 deposited reagents. Further read-outs or replicates are left out here. Not given: the time to read-out."}
{"gene symbol": "ZMAT5 (GeneID 55954)", "PubChem SID": "SID364001403", "BNIP3L mRNA, set 1": 0.289}
{"gene symbol": "RPL8 (GeneID 6132)", "PubChem SID": "SID363992257", "BNIP3L mRNA, set 1": 0.673}
{"gene symbol": "NOL3 (GeneID 8996)", "PubChem SID": "SID363995001", "BNIP3L mRNA, set 1": 0.0547}
{"gene symbol": "PIAS1 (GeneID 8554)", "PubChem SID": "SID363999921", "BNIP3L mRNA, set 1": 0.113}
{"gene symbol": "DDX46 (GeneID 9879)", "PubChem SID": "SID363999131", "BNIP3L mRNA, set 1": 0.185}
{"gene symbol": "AIDA (GeneID 64853)", "PubChem SID": "SID364002575", "BNIP3L mRNA, set 1": 0.0937}
{"gene symbol": "NEO1 (GeneID 4756)", "PubChem SID": "SID363993672", "BNIP3L mRNA, set 1": 0.17}
{"gene symbol": "CEP63 (GeneID 80254)", "PubChem SID": "SID364003293", "BNIP3L mRNA, set 1": 0.144}
{"gene symbol": "RCHY1 (GeneID 25898)", "PubChem SID": "SID363999494", "BNIP3L mRNA, set 1": 0.112}
{"gene symbol": "ACBD5 (GeneID 91452)", "PubChem SID": "SID364004668", "BNIP3L mRNA, set 1": 0.15}
{"gene symbol": "BMS1 (GeneID 9790)", "PubChem SID": "SID363999083", "BNIP3L mRNA, set 1": 0.151}
{"gene symbol": "UNKL (GeneID 64718)", "PubChem SID": "SID364002635", "BNIP3L mRNA, set 1": 0.101}
{"gene symbol": "UNKL (GeneID 64718)", "PubChem SID": "SID364002686", "BNIP3L mRNA, set 1": 0.0985}
{"gene symbol": "BICRA (GeneID 29998)", "PubChem SID": "SID363999663", "BNIP3L mRNA, set 1": 0.2}
{"gene symbol": "GULP1 (GeneID 51454)", "PubChem SID": "SID364000028", "BNIP3L mRNA, set 1": 0.0798}
{"gene symbol": "LZTR1 (GeneID 8216)", "PubChem SID": "SID363997538", "BNIP3L mRNA, set 1": 0.388}
{"gene symbol": "TMPRSS11D (GeneID 9407)", "PubChem SID": "SID363995258", "BNIP3L mRNA, set 1": 0.0657}

Next part, starting with the last 3 of the part before.
{"gene symbol": "GULP1 (GeneID 51454)", "PubChem SID": "SID364000028", "BNIP3L mRNA, set 1": 0.0798}
{"gene symbol": "LZTR1 (GeneID 8216)", "PubChem SID": "SID363997538", "BNIP3L mRNA, set 1": 0.388}
{"gene symbol": "TMPRSS11D (GeneID 9407)", "PubChem SID": "SID363995258", "BNIP3L mRNA, set 1": 0.0657}
{"gene symbol": "SERPINI1 (GeneID 5274)", "PubChem SID": "SID363995964", "BNIP3L mRNA, set 1": 0.16}
{"gene symbol": "APBB1 (GeneID 322)", "PubChem SID": "SID363992455", "BNIP3L mRNA, set 1": 0.192}
{"gene symbol": "GJA8 (GeneID 2703)", "PubChem SID": "SID363996187", "BNIP3L mRNA, set 1": 0.125}
{"gene symbol": "SUSD5 (GeneID 26032)", "PubChem SID": "SID364005321", "BNIP3L mRNA, set 1": 0.0811}
{"gene symbol": "YPEL1 (GeneID 29799)", "PubChem SID": "SID363998427", "BNIP3L mRNA, set 1": 0.131}
{"gene symbol": "FOXA3 (GeneID 3171)", "PubChem SID": "SID363995474", "BNIP3L mRNA, set 1": 0.288}
{"gene symbol": "YBX2 (GeneID 51087)", "PubChem SID": "SID363999770", "BNIP3L mRNA, set 1": 0.139}
{"gene symbol": "PPP1R14A (GeneID 94274)", "PubChem SID": "SID364004349", "BNIP3L mRNA, set 1": 0.0782}
{"gene symbol": "LRRC14 (GeneID 9684)", "PubChem SID": "SID363999018", "BNIP3L mRNA, set 1": 0.138}
{"gene symbol": "KLK12 (GeneID 43849)", "PubChem SID": "SID364001429", "BNIP3L mRNA, set 1": 0.0693}
{"gene symbol": "NOC3L (GeneID 64318)", "PubChem SID": "SID364002438", "BNIP3L mRNA, set 1": 0.13}
{"gene symbol": "NR3C1 (GeneID 2908)", "PubChem SID": "SID363991512", "BNIP3L mRNA, set 1": 0.126}
{"gene symbol": "SET (GeneID 6418)", "PubChem SID": "SID363994161", "BNIP3L mRNA, set 1": 0.178}
{"gene symbol": "MTARC1 (GeneID 64757)", "PubChem SID": "SID364002521", "BNIP3L mRNA, set 1": 0.145}
{"gene symbol": "SSBP3 (GeneID 23648)", "PubChem SID": "SID364000757", "BNIP3L mRNA, set 1": 0.15}
{"gene symbol": "COPS7A (GeneID 50813)", "PubChem SID": "SID364000030", "BNIP3L mRNA, set 1": 0.0937}
{"gene symbol": "FHL2 (GeneID 2274)", "PubChem SID": "SID363992712", "BNIP3L mRNA, set 1": 0.102}
{"gene symbol": "ZSCAN31 (GeneID 64288)", "PubChem SID": "SID364003479", "BNIP3L mRNA, set 1": 0.0815}
{"gene symbol": "CRCT1 (GeneID 54544)", "PubChem SID": "SID364001367", "BNIP3L mRNA, set 1": 0.177}
